# Results reported in PubChem BioAssay AID2685 (National Center for Advancing Translational Sciences (NCATS), 2010).
# The other results are listed elsewhere or left out. These are further read-outs of the screen, such as a control signal, another cell line or another target. No call is given for them. Compounds called inactive in the main read-out are mostly missing here. The note in brackets gives the kind of curve behind each potency; many fits are weak.
# Experiment: qHTS Assay for Lipid Storage Modulators in Drosophila S3 Cells;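 on cell number change: cells counted by Cell Tracker Red CMTPX staining in the red channel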
# Conditions: BODIPY lipid droplet fluorescence, 18-24 h; for cell number change: measured here: cell count max response, cells fed with added oleic acid
# Summary of the method: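 Laser-scanning cytometry quantifies lipid droplet accumulation (500–530 nm total intensity; droplet/cell object ratio) in oleic acid-fed (400 uM added) Drosophila S3 cells treated with a concentration series. 20 uM Triacsin C defined 100% inhibition.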
# [1] = measured here: cell number channel AC50, cells fed with added oleic acid
# [2] = measured here: lipid fluorescence (Fed channel) AC50, cells fed with added oleic acid
Structure (SMILES),cell number change,AC50 [1],AC50 [2]
COc1ccc(-c2n[nH]c(C)c2-c2cnn(-c3ccccc3)c2)c(O)c1,-57%,"16.4 µM [falling, single point]",–
Cc1cc2nsnc2c(S(=O)(=O)NCC(=O)O)c1C,17.4%,–,–
c1ccc(Cn2ncc3c2ncn2c(-c4ccncc4)nnc32)cc1,55.3%,"29.1 µM [rising, single point]",–
O=S(=O)(NCC(c1cccnc1)N1CCN(c2ccc(F)cc2)CC1)c1ccc(F)cc1 (stereo not drawn),–,"0.411 µM [rising, full curve]",–
COc1nc2ccccc2nc1N1CCN(c2ccc(F)cc2)CC1,–,–,"6.51 µM [rising, partial curve]"
CCc1cc2c(=O)c(-c3cnn(-c4ccccc4)c3)c(C)oc2cc1OCC(=O)Nc1cccc(C)c1,4.84%,–,"29.1 µM [rising, single point]"
CCN(CC)C(=O)c1ccc2c(=O)n(Cc3ccc4c(c3)OCO4)c(=S)[nH]c2c1,9.91%,–,–
CC(C)c1ccc(NC(=O)C2CCN(C(=O)[C@@H]3Cc4ccccc4CN3)CC2)cc1,23.3%,–,"2.91 µM [rising, single point]"
C=CCn1c(CCC(O)COCCCCC)n[nH]c1=S (stereo not drawn),37.4%,"3.26 µM [rising, full curve, poor fit]","6.51 µM [falling, single point]"
C=CCn1c(CNC(=O)c2ccccc2F)nnc1SCC(=O)N1CCOCC1,-14.9%,–,"29.1 µM [falling, single point]"
N#Cc1ccc(OCC(=O)OCC(=O)Nc2sccc2C(N)=O)cc1,10.1%,"1.46 µM [falling, partial curve, poor fit]",–
COc1cc(CNCc2ccncc2)cc(Br)c1OCc1ccccc1F,-13.4%,–,–
O=C1c2ccccc2C(=O)C1c1ccc2ccccc2n1,9.69%,–,"0.731 µM [rising, full curve, poor fit]"
C=C(C(=O)c1ccccc1)C(C)C(=C)C(=O)c1ccccc1,-16.7%,–,"14.6 µM [falling, partial curve]"
CC(C)CC(NS(=O)(=O)c1ccc2c(c1)oc(=O)n2C)C(=O)NC1CCCc2ccccc21 (stereo not drawn),19.7%,"0.00411 µM [rising, full curve, poor fit]",–
COc1cccc(NC(=O)[C@@H](NC(=O)N2CCn3c2nc2ccccc23)C(C)C)c1,-4.25%,–,"6.51 µM [rising, single point]"
N#CC1=C(N)Oc2cc(N)ccc2C1C1CC=CCC1 (stereo not drawn),-35%,"5.17 µM [falling, full curve]","0.92 µM [rising, full curve, poor fit]"
COc1ccc(CNC2CCCc3ccccc32)c(OC)c1 (stereo not drawn),-5.61%,–,"23.1 µM [falling, single point]"
CC1CCN(C(=O)Cn2nnc(-c3ccc([N+](=O)[O-])cc3)n2)CC1,18.6%,–,–
O=C(CN1C(=O)NC2(CCCCC2)C1=O)Nc1cccc(Cl)c1Cl,8.15%,–,–
CC(c1ccccc1)N(C)C(=O)CSc1nnc(C2CC2)n1C1CC1 (stereo not drawn),-47.3%,–,–

# Filtered by structure, those above containing a cyano group
Structure (SMILES),cell number change,AC50 [1],AC50 [2]
N#Cc1ccc(OCC(=O)OCC(=O)Nc2sccc2C(N)=O)cc1,10.1%,"1.46 µM [falling, partial curve, poor fit]",–
N#CC1=C(N)Oc2cc(N)ccc2C1C1CC=CCC1 (stereo not drawn),-35%,"5.17 µM [falling, full curve]","0.92 µM [rising, full curve, poor fit]"

# Additional results:

Structure (SMILES),cell number change,AC50 [1],AC50 [2]
Cc1cc(C)cc(-n2c(C)c3c(C)nnc(C)c3c2C)c1,13.1%,–,"0.731 µM [rising, full curve]"
CCOC(=O)[C@H]1[C@H]2COc3ccc(Br)cc3[C@@H]2N2C(=O)CN(CC3CCCO3)C(=O)[C@@]12C (stereo partly drawn),17.2%,–,–
O=C(NC1CCCCC1)C(c1ccc2ncccc2c1)N(Cc1ccccc1)C(=O)c1ccc2c(c1)OCCO2 (stereo not drawn),–,"0.58 µM [rising, full curve]",–
CSc1nc2c(c(=O)[nH]1)C(c1ccc(F)cc1)CC(=O)N2 (stereo not drawn),36.2%,"3.26 µM [rising, single point]",–
O=C(NCCc1ccccc1)C1CCN(C(=O)NCc2ccccc2)CC1,-40.2%,"6.51 µM [falling, partial curve, poor fit]","11.6 µM [falling, partial curve]"
COCCn1c(C)cc(C(=O)COC(=O)c2ccc(NC(=O)CC#N)cc2)c1C,–,–,"4.61 µM [falling, partial curve]"
Cc1ccc(Nc2nc(N)nc(COC(=O)c3ccc(Br)o3)n2)cc1,6.83%,–,–
COc1ccccc1N1CCN(C(=O)C2CC(=O)N(c3ccccc3)C2)CC1 (stereo not drawn),-15.4%,–,–
CCOc1ccc(CCNC(=O)COn2nnc3ccc(S(=O)(=O)N4CCOCC4)cc32)cc1OCC,-3.93%,–,–
CC(C)C[C@@H](CSc1ccccc1)N1CCN(CCc2ccccc2)CCC1=O,10.4%,–,–
COc1cc(OC)cc(C(=O)NC2CCN(Cc3nnnn3Cc3cccs3)CC2)c1,47.8%,"9.2 µM [rising, partial curve, poor fit]","11.6 µM [rising, partial curve]"
COc1cccc(NC(=O)CN(C)C(=O)c2cccc(S(=O)(=O)N3c4ccccc4CC3C)c2)c1 (stereo not drawn),203%,"23.1 µM [rising, single point]",–
O=C(NCCCN1CCCCC1)c1ccc2c(c1)NC(=O)c1ccccc1S2,12.2%,–,"29.1 µM [rising, single point]"
O=C(NCCCn1ccnc1)c1cc2nc(-c3ccc(Br)cc3)cc(C(F)(F)F)n2n1,-27.4%,–,"5.8 µM [falling, partial curve]"
COc1cccc(CNC(=O)Cn2c(=O)n(CCC(=O)N3CCCCC3)c(=O)c3sccc32)c1,–,–,"29.1 µM [falling, single point]"
CCOC(=O)c1nn(-c2cc(C(=O)OC)cc(C(=O)OC)c2)cc1O,32.7%,"13 µM [rising, partial curve, poor fit]",–
CCOc1cc(N2CCOCC2)c(OCC)cc1NC(=O)c1ccc(-n2ccnc2)c([N+](=O)[O-])c1,16.2%,–,–
Cc1cc(N2C(=O)Cc3ccccc3C2=O)ccc1C(C)C,-19.1%,–,–
O=C(N/N=C/c1ccc([N+](=O)[O-])s1)C(O)c1ccccc1 (stereo not drawn),-34.6%,"11.6 µM [falling, partial curve, poor fit]","0.00461 µM [falling, full curve, poor fit]"
COc1ccc(NS(=O)(=O)c2ccc(N/N=C(\C)c3ccncc3)c([N+](=O)[O-])c2)cc1,–,–,"6.51 µM [falling, partial curve, poor fit]"
